Publication doi:10.1101/2025.05.10.653276 (bioRxiv, 2025)
Where two headings read alike, the source gives them in different places.

Assays:
[1] = system: B. ovis; assay: microbe, parasite or virus in culture; type: cell-based; details: Brucella ovis, THP-1, read-out: Intracellular IC50
[2] = system: B. ovis; assay: microbe, parasite or virus in culture; type: cell-based; details: Brucella ovis, read-out: Axenic IC50

For `O=C1CCc2ccc(OCCCCN3CCN(c4cccc(Cl)c4Cl)CC3)cc2N1` [Aripiprazole], the IC50 [1] was 4 µM and the IC50 [2] was > 50 µM.
